Data as given in PubChem BioAssay AID652243 (Drosophila RNAi Screening Center, 2013).
In all, the deposit lists about 24,000 reagents; below is a random part of those that have a named target and a result. In the full data, 246 (1%) were called active. 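Plates not normalised; calls are printed but the firefly/Renilla ratio behind them is not deposited; fold cut for lowering reported inconsistently.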 Raw values are not corrected between plates. Entries without a mark were called inactive. A plus sign joins genes that one reagent is predicted to hit. Reagent sequences are not shown. The record does not give: the amount of reagent.

- Assay: 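Knock-downs that decrease or increase androgen receptor reporter signal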 (primary screen)
- Cells: Drosophila S2R+ cells
- Knock-down reagent: long dsRNA against Drosophila genes
- Time to read-out: 72 h (48 h, then 24 h hormone)
- Conditions: synthetic androgen R1881 at 10 nM for 24 h
- Measurement: 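Per-well raw luminescence of the androgen-driven firefly reporter and of the Renilla control, two replicates each, without normalisation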
- Scale: firefly reporter light: higher = more light from androgen-responsive reporter; Renilla control light: higher = more constitutive control signal (cell number, transfection)
- Rule for the call: 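Across duplicate plates, a knock-down whose log firefly/Renilla ratio shifted a set fold down or up from the GFP/LacZ control mean was a hit; the downward cut appears as both 1.5 and 3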
- Meaning of the calls: active = hit: reporter lowered or raised; inactive = no hit

nonA (GeneID 32603) [DRSC20357] scored firefly reporter light, replicate 1 = 3.64e5; firefly reporter light, replicate 2 = 4.25e5; Renilla control light, replicate 1 = 3.98e6; Renilla control light, replicate 2 = 3.69e6.
Silencing of nonA (GeneID 32603) [DRSC27455] came out at: firefly reporter light, replicate 1 = 1.95e5 (active); firefly reporter light, replicate 2 = 2.62e5; Renilla control light, replicate 1 = 7.64e5; Renilla control light, replicate 2 = 9.91e5.
Knock-down of Osi15 (GeneID 40771) [DRSC12178] came out at: firefly reporter light, replicate 1 = 65146; firefly reporter light, replicate 2 = 69673; Renilla control light, replicate 1 = 1.68e6; Renilla control light, replicate 2 = 1.03e6.
Abcd1 (GeneID 43772) [DRSC17157] gave firefly reporter light, replicate 1 = 1.10e5; firefly reporter light, replicate 2 = 57884; Renilla control light, replicate 1 = 6.89e5; Renilla control light, replicate 2 = 4.07e5.
Silencing of CG15382 (GeneID 33391) [DRSC00397] came out at: firefly reporter light, replicate 1 = 59824; firefly reporter light, replicate 2 = 71494; Renilla control light, replicate 1 = 4.54e5; Renilla control light, replicate 2 = 5.81e5.
CG15382 (GeneID 33391) [DRSC24805] scored firefly reporter light, replicate 1 = 4.85e5; firefly reporter light, replicate 2 = 4.22e5; Renilla control light, replicate 1 = 6.20e5; Renilla control light, replicate 2 = 5.42e5.
Knock-down of mEFTu1 (GeneID 44438) [DRSC06959] came out at: firefly reporter light, replicate 1 = 7.93e5; firefly reporter light, replicate 2 = 8.37e5; Renilla control light, replicate 1 = 1.23e6; Renilla control light, replicate 2 = 1.47e6.
Knock-down of mEFTu1 (GeneID 44438) [DRSC29468] resulted in: firefly reporter light, replicate 1 = 3.36e5; firefly reporter light, replicate 2 = 4.10e5; Renilla control light, replicate 1 = 1.31e6; Renilla control light, replicate 2 = 1.31e6.
For CG17294 (GeneID 34155) [DRSC02596], the entry reads firefly reporter light, replicate 1 = 1.70e6; firefly reporter light, replicate 2 = 1.43e6; Renilla control light, replicate 1 = 2.92e6; Renilla control light, replicate 2 = 2.44e6.
Depletion of Mst27D (GeneID 319019) [DRSC00967] came out at: firefly reporter light, replicate 1 = 2.48e5; firefly reporter light, replicate 2 = 2.06e5; Renilla control light, replicate 1 = 5.37e5; Renilla control light, replicate 2 = 4.37e5.
After knock-down of HDAC1 (GeneID 38565) [DRSC08696], the screen gave firefly reporter light, replicate 1 = 5.96e5; firefly reporter light, replicate 2 = 5.82e5; Renilla control light, replicate 1 = 8.51e5; Renilla control light, replicate 2 = 1.61e6.
TwdlW (GeneID 42075) [DRSC15540] gave firefly reporter light, replicate 1 = 1.33e5; firefly reporter light, replicate 2 = 1.68e5; Renilla control light, replicate 1 = 1.81e6; Renilla control light, replicate 2 = 2.33e6.
After knock-down of TwdlW (GeneID 42075) [DRSC25402], the screen gave firefly reporter light, replicate 1 = 7.84e5; firefly reporter light, replicate 2 = 8.59e5; Renilla control light, replicate 1 = 1.14e6; Renilla control light, replicate 2 = 1.11e6.
Oseg4 (GeneID 38219) [DRSC08548] scored firefly reporter light, replicate 1 = 7.09e5; firefly reporter light, replicate 2 = 5.21e5; Renilla control light, replicate 1 = 1.67e6; Renilla control light, replicate 2 = 1.39e6.

A few values from the list:
CG15382 (GeneID 33391) [DRSC00397], Renilla control light, replicate 2: 5.81e5
Mst27D (GeneID 319019) [DRSC00967], firefly reporter light, replicate 2 → 2.06e5
nonA (GeneID 32603) [DRSC20357], firefly reporter light, replicate 1 = 3.64e5

Continued:
Depletion of CG7201 (GeneID 38929) [DRSC10786] came out at: firefly reporter light, replicate 1 = 2.50e5; firefly reporter light, replicate 2 = 2.28e5; Renilla control light, replicate 1 = 3.30e6; Renilla control light, replicate 2 = 2.31e6.
After knock-down of CG43736 (GeneID 3771905) [DRSC18370] the results were firefly reporter light, replicate 1 = 7.40e5; firefly reporter light, replicate 2 = 7.81e5; Renilla control light, replicate 1 = 1.54e6; Renilla control light, replicate 2 = 2.17e6.
Knock-down of CG43736 (GeneID 3771905) [DRSC18371] came out at: firefly reporter light, replicate 1 = 3.51e5; firefly reporter light, replicate 2 = 3.67e5; Renilla control light, replicate 1 = 2.37e6; Renilla control light, replicate 2 = 2.29e6.
CG43736 (GeneID 3771905) [DRSC27351] scored firefly reporter light, replicate 1 = 3.33e5; firefly reporter light, replicate 2 = 3.34e5; Renilla control light, replicate 1 = 6.86e5; Renilla control light, replicate 2 = 6.26e5.
Silencing of CG43736 (GeneID 3771905) [DRSC39100] resulted in: firefly reporter light, replicate 1 = 6.18e5; firefly reporter light, replicate 2 = 6.05e5; Renilla control light, replicate 1 = 1.17e6; Renilla control light, replicate 2 = 1.24e6.
After knock-down of Obp50c + Obp50b [DRSC05482], the record shows firefly reporter light, replicate 1 = 1.39e5; firefly reporter light, replicate 2 = 1.28e5; Renilla control light, replicate 1 = 2.34e5; Renilla control light, replicate 2 = 2.92e5.
Knock-down of CG14759 (GeneID 35803) [DRSC06494] gave: firefly reporter light, replicate 1 = 3.87e5; firefly reporter light, replicate 2 = 3.38e5; Renilla control light, replicate 1 = 2.69e6; Renilla control light, replicate 2 = 1.51e6.
